Drawing on US20070259402A1, this text covers binding for 1 substance.

No constants are given. Whether binding was seen depends on the method and setting. Some results given as binding are weak or reduced against the parent protein; the word gives no strength.

The target in assay [1] is FIX-Fc homodimer, propeptide removed (human). Nature of the assay: protein A purification followed by SDS-PAGE, CHO line with PACE-SOL, FIG. 5.
The target of assay [2] is proFIX-Fc homodimer (FIX-Fc dimer retaining the propeptide) (human). Nature of the assay: protein A purification followed by SDS-PAGE, CHO line with PC7-SOL, FIG. 5.

In the case of “protein A (protein A-Sepharose / MabSelect) (from UniProt P38507 37-327)”, the binding result in assay [1] and in assay [2] was “binds” each time.
